Article PMC2702365
These are yes or no findings as the source states them, for the method shown. Some binding calls cover weakened binding; strength is not graded here.

Protein sequences, listed by entry. Tags and fused reporters are not part of them. Residues count along the entry.
UniProt Q04206: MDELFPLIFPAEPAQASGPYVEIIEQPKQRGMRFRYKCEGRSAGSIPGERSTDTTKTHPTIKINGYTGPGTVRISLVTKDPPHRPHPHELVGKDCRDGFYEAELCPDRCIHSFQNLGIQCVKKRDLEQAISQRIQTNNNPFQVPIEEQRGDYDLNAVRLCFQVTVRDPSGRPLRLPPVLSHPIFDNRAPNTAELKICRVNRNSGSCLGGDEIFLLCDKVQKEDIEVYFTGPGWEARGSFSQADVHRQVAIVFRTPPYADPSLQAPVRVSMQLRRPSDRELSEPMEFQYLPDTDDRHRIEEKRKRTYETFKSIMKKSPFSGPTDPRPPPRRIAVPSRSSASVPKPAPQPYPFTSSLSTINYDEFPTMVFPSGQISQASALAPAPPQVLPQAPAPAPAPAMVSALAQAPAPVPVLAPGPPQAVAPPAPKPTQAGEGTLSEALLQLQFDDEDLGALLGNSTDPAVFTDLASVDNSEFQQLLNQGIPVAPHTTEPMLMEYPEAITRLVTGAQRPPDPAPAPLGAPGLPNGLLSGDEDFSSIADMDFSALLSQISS
UniProt P19838, residues 1-433: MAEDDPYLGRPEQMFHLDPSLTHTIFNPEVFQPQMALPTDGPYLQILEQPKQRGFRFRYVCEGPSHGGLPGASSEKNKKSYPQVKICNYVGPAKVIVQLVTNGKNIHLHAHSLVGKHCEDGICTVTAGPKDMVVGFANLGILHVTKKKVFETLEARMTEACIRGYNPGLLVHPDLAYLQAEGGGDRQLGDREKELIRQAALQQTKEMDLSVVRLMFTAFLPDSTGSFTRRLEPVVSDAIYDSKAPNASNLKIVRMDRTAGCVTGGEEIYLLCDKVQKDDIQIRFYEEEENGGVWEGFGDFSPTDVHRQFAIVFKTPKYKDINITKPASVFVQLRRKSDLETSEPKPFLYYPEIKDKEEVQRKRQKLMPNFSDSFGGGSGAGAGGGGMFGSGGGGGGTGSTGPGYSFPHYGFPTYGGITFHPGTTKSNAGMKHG

Target: NF-κB RelA/p65 subunit (human (endogenous in OE21)) (UniProt Q04206)
Test: native gel or EMSA; supershift with antibodies against p50 or p65 on nuclear extracts of OE21 cells treated for 1 h with 1 × 10^5 C. albicans/ml; γ32P-labelled oligonucleotide with a consensus NF-κB site, 30 min at room temperature, gel at 100 V and 4°C

binding: binds
Substance: NF-κB p50 subunit (from UniProt P19838 1-433)
